Reference: publication PMC7261959
No constants are given. Whether binding was seen depends on the method and setting. Binding seen in cells or lysates may run through a third protein. Some entries that bind do so weakly or less than the wild type.

Legend:
[1] = biological target: T1, PGC-1α (peroxisome proliferator-activated receptor gamma coactivator 1-alpha) (rat (endogenous in PC-12)) (UniProt Q9QYK2); experiment: co-IP; lysates of untreated (control) PC12 cells, precleared; anti-PGC-1α rabbit antibody (1 µg per mg protein) with Protein A/G PLUS agarose overnight; western blot with anti-PGC-1α and anti-SIRT1; rabbit control IgG in parallel
T1 sequence: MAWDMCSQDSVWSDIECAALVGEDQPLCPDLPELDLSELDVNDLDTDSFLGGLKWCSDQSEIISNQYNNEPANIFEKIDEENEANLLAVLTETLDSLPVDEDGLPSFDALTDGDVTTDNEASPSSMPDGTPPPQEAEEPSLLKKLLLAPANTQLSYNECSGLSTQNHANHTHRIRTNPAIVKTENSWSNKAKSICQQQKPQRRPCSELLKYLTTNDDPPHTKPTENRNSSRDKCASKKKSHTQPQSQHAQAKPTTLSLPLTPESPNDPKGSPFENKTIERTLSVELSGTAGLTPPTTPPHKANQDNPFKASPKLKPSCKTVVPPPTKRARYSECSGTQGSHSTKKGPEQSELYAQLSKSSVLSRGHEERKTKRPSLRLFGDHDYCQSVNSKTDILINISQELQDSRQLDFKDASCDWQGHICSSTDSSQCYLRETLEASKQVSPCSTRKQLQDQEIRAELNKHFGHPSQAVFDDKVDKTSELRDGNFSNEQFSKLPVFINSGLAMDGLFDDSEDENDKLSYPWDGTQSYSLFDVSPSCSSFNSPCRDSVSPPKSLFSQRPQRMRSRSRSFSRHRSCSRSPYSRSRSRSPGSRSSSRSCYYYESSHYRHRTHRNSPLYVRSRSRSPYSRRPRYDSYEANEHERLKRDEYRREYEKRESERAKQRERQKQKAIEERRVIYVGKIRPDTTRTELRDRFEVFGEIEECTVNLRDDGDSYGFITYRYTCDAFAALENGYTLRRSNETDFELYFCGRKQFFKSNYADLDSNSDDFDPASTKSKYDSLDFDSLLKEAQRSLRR

[2] = biological target: T1, PGC-1α (peroxisome proliferator-activated receptor gamma coactivator 1-alpha) (rat (endogenous in PC-12)); experiment: condition: only PC12 cells treated 24 h with AβOs (0.5 µM); co-IP; lysates of PC12 cells treated 24 h with AβOs (0.5 µM), precleared; anti-PGC-1α rabbit antibody (1 µg per mg protein) with Protein A/G PLUS agarose overnight; western blot with anti-PGC-1α and anti-SIRT1

binding [1]: binds
binding [2]: no binding
B1: SIRT1 (silent information regulator 2 homolog 1) (protein, UniProt A0A0G2JZ79 1-741)
chain: MADEAALALQAGGSPSAAAAMEAASQPADEPLRKRPRRDGPGLGRSPGEPSAAAAAAAAAAGCEAASAAAPAALWREAAGAAAASAEREAPATAAAGDGDNGPGLRREPRAADDFDDDEGEEEDEAAAAAAAAIGYRDNLLLADEIITNGFHSCESDDDDRASHASSSDWTPRPRIGPYTFVQQHLMIGTDPRTILKDLLPETIPPPELDDMTLWQIVINILSEPPKRKKRKDINTIEDAVKLLQECKKIIVLTGAGVSVSCGIPDFRSRDGIYARLAVDFPDLPDPQAMFDIEYFRKDPRPFFKFAKEIYPGQFQPSLCHKFIALSDKEGKLLRNYTQNIDTLEQVAGIQRIIQCHGSFATASCLICKYKVDCEAVRGDIFNQVVPRCPRCPADEPLAIMKPEIVFFGENLPEQFHRAMKYDKDEVDLLIVIGSSLKVRPVALIPSSIPHEVPQILINREPLPHLHFDVELLGDCDVIINELCHRLGGEYAKLCCNPVKLSEITEKPPRTQKELVHLSELPPTPLHISEDSSSPERTVPQDSSVIATLVDQTIKNKVDDLEVSEPKSCVEEKSQEVQTYRNVESINVENPDFKAVGSSTGDKNERTSVAETVRKCWPNRLAKEQISKRLDGNQYLFVPPNRYIFHGAEVYSDSEDDALSSSSCGSNSDSGTCQSPSLEEPLEDESEIEEFYNGLEDDADRPECAGGSGADGGDQEAVNEAIAMKQELTDVNCTPDKSEHY
